Results on 62 compounds are retold here after PubChem BioAssay AID493014 (National Center for Advancing Translational Sciences (NCATS), 2011).

This is one part of the list. Further columns of the screen follow, without active or inactive calls. The list favours compounds with an active or inconclusive main result. The note in brackets gives the kind of curve behind each potency; many fits are weak.

A short description of this assay: qHTS Assay to Find Inhibitors of Chronic Active B-Cell Receptor Signaling. Particulars: ABC-DLBCL IkBa-CBG/CBR reporter, luminescence ratio (green luciferase fused to IkBa over red control in TMD8 lymphoma cells), 4 h. An outline of the steps: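 TMD8 ABC-DLBCL cells carrying doxycycline-inducible green luciferase fused to IkappaBalpha plus unfused red luciferase were exposed to compounds (up to 46 uM) for 4 hrs at 37C. Activity came from the overlap-corrected green/red luminescence ratio.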
Background: Quantitative high-throughput screening tests each substance at several concentrations.

Where [1] appears, read: measured here: CBR red luminescence, cell number.
[2] abbreviates: measured here: IkBa-CBG green luminescence.

In general, AC50 refers to the midpoint of the concentration-response curve, whichever way the signal moves.

`C/C(=N\Nc1nc(Cl)c(Cl)cc1Cl)c1ccc(S(=O)(=O)NCc2ccco2)cc1`: the AC50 under setting [1] is 29.1 µM [falling, single point].

As to `CCc1cc(C(=O)c2ccc(C)cc2)c(NC(=O)CCl)s1`, under setting [1], the AC50 is 23.1 µM [falling, single point].

In the case of `O=C(CCc1ccccc1)NNC(=O)c1cc(Cl)ccc1O`, the AC50 under setting [1] was 20 µM [falling, single point].

On to `O=C(CCN1C(=O)c2ccccc2C1=O)NC(=S)Nc1ccccc1`, for which the half-maximal activity concentration (AC50) under setting [1] is 2.91 µM [falling, partial curve, poor fit].

For the compound `COc1cccc(NC(=O)Nc2ccccc2SC)c1`, the AC50 under setting [1] is 15.8 µM [falling, partial curve, poor fit].

Take `C=CCC[C@H](Cc1ccc(F)cc1)C(=O)OC[C@@H](NC(=O)[C@@H](CC=C)CC(=O)N(CCO)Cc1ccccc1)C(C)(C)C`: the AC50 under setting [1] was 23.1 µM [falling, partial curve, poor fit].

Take `CC(=NC1CC1)c1c(-c2ccccc2)[nH]n(-c2nc3ccccc3s2)c1=O`: the AC50 under setting [1] is 2.06 µM [rising, full curve].

As to `CCC1CCc2c(sc(NC(C)=O)c2C#N)C1` (centres undefined), the AC50 under setting [1] was 8.2 µM [rising, partial curve].

As for `Cc1cccc(C)c1NC(=O)c1ccc2c(c1)CCN2S(C)(=O)=O`, the AC50 under setting [1] is 0.708 µM [rising, full curve, poor fit].

Consider `O=C(CSc1nnc(CNc2ccc(Cl)cc2)n1Cc1ccccc1)NCc1ccco1`, for which the AC50 under setting [1] is 35.5 µM [falling, partial curve, poor fit].

As for `CCCCOc1ccc(-c2cnc3ccccc3n2)cc1`, the AC50 under setting [1] is 3.26 µM [rising, full curve].

On to `COC(=O)c1ccc(NC(=O)C[n+]2ccccc2C)cc1`, for which the AC50 under setting [1] was 6.31 µM [falling, partial curve].

As for `O=C(COC(=O)c1c(Cl)ccc(Cl)c1Cl)NC(=O)NCc1ccccc1`, the half-maximal activity concentration (AC50) under setting [1] is 0.82 µM [rising, full curve, poor fit].

Turning to `O=C(Nc1ccc2nc(-c3cccs3)c(-c3cccs3)nc2c1)N1CCOCC1`, the AC50 under setting [1] is 0.411 µM [rising, full curve].

As to `CC[C@@]12C(=O)N(c3cccc(F)c3)C(=O)N1[C@H](c1cccc(C)c1)[C@@H]1C(=O)N(Cc3ccccc3)C(=O)[C@@H]12`, the AC50 under setting [1] was 22.4 µM [falling, single point].

Take `N#Cc1nc(COc2ccc(Cl)cc2Cl)oc1N1CCN(c2ccccc2)CC1`: under setting [1], the AC50 was 0.58 µM [rising, full curve, poor fit].

Consider `CCCC(=O)Nc1ccccc1NC(=O)c1cc(OC)c(OC)c(OC)c1`, for which the AC50 under setting [1] is 25.9 µM [falling, single point].

Consider `COc1cc(OC)c(NC(=O)c2ccoc2C)cc1Cl`, for which the AC50 under setting [1] is 10.3 µM [rising, partial curve, poor fit].

With `COc1cc2nc(CN3CCN(S(=O)(=O)c4ccc(C)c(C)c4)CC3)[nH]c(=O)c2cc1OC`, the AC50 under setting [1] is 17.8 µM [rising, single point].

Take `CCCC(=O)N(C1CC(C)C(C#N)(C#N)C1(C#N)C#N)N(C)C` (centres undefined): the AC50 reads like this: under setting [1], 14.1 µM [falling, partial curve, poor fit]; under setting [2], 14.1 µM [rising, partial curve, poor fit].

With `c1ccc(-c2cc3c(N4CCOCC4)ncnc3s2)cc1`, the AC50 under setting [1] is 1.58 µM [rising, partial curve, poor fit].

In the case of `N#CC1=C(N)OC2=C(CCc3ccccc32)C1c1ccccc1` (centres undefined), the AC50 is, setting by setting: under setting [1], 2.59 µM [rising, full curve]; under setting [2], 2.59 µM [falling, full curve].

As to `Cc1ccccc1Cn1c(CN2CCC(C(=O)NCc3cccnc3)CC2)cc2ccccc21`, under setting [1], the AC50 is 10 µM [falling, partial curve, poor fit].

For the compound `Oc1ccc(-c2nnc(-c3ccccc3)c(-c3ccccc3)n2)cc1`, under setting [1], the AC50 is 4.11 µM [rising, single point].

Consider `CN(C)/N=C/c1ccc(OS(=O)(=O)c2ccccc2)cc1`, for which the AC50 under setting [1] was 1 µM [rising, full curve].

Turning to `O=C(O)C1CC(=O)N(CCc2c[nH]c3ccccc23)C1` (centres undefined), the AC50 under setting [1] was 35.5 µM [rising, single point].

Consider `COc1ccc(Cl)cc1NC(=S)NCCc1c[nH]c2ccccc12`, for which the AC50 under setting [1] was 10 µM [falling, partial curve].

Take `O=C(Nc1ccc(O)cc1)c1ccccc1OCc1ccccc1`: the AC50 under setting [1] was 14.1 µM [falling, partial curve].

In the case of `COc1ccccc1-n1c(CNC(=O)c2ccco2)nnc1SCC(=O)Nc1cc(C)ccc1C`, the AC50 under setting [1] was 8.91 µM [falling, partial curve].

Consider `CC1=NN(/C(=N\c2nnc(C)s2)Nc2ccccc2)[C@H](c2cccc3ccccc23)S1`, for which the AC50 under setting [1] was 0.0651 µM [falling, full curve, poor fit].

Take `O=C(Cc1ccsc1)N1CCc2c([nH]c3ccccc23)C1c1ccccn1` (centres undefined): under setting [1], the AC50 was 15.8 µM [falling, partial curve, poor fit].

As for `O=C(NCCCSc1ccccc1)c1cc(Cl)ccc1O`, the AC50 under setting [1] was 14.1 µM [falling, partial curve].

With `COc1ccc(/C=C2\SC(=S)N(CCCC(=O)Nc3ccccn3)C2=O)cc1OC`, the AC50 under setting [1] is 4.11 µM [falling, partial curve].

In the case of `C/C=C/C=C/C(=O)N1CC[C@]23c4ccccc4N[C@H]4N(C)c5cccc6c5[C@]42CCN([C@H]6C2OC2(C)C)[C@H]13` (some centres undefined), the AC50 under setting [1] is 7.08 µM [falling, full curve].

In the case of `COc1ccc(N2C3=[N+](CC2(C)O)c2ccccc2CC3)cc1` (centres undefined), the AC50 under setting [1] was 25.1 µM [rising, single point].

For the compound `CC(C)(C)c1ccc(OCC(=O)N2CCCCCC2)c(Br)c1`, the AC50 under setting [1] is 25.1 µM [falling, partial curve, poor fit].

Regarding `Cc1cc(C)n(-c2nc3sc4c(c3c(=O)[nH]2)CCCC4)n1`, the AC50 under setting [1] is 18.4 µM [falling, single point].

`O=C(Cn1ncc(Cl)c(Cl)c1=O)N1CCOCC1`: the concentration at half-maximal activity (AC50) under setting [1] is 35.5 µM [falling, single point].

In the case of `Cn1cnnc1Sc1cc(N2CCN(S(=O)(=O)c3ccc4ccccc4c3)CC2)ccc1[N+](=O)[O-]`, under setting [1], the AC50 is 29.1 µM [rising, single point].

Consider `O=C(COC(=O)c1ccc(S(=O)(=O)N2CCCCCC2)cc1)NCc1ccc(Cl)cc1`, for which the AC50 under setting [1] was 0.0082 µM [rising, full curve].

Take `N#C/C(=N\Nc1cccc(C(F)(F)F)c1)C(=O)c1csc(-c2cccnc2)n1`: under setting [1], the AC50 was 35.5 µM [falling, single point].

For the compound `COc1ccc(-c2csc(N(CCCN(C)C)C(=O)c3ccc(C)cc3)n2)cc1`, the concentration at half-maximal activity (AC50) under setting [1] is 35.5 µM [falling, single point].

As for `CC(=O)O[C@H]1CC[C@H]2[C@@H]3CCc4cc(O)ccc4[C@H]3CC[C@]12C`, the AC50 under setting [1] was 1.64 µM [rising, full curve].

Take `O=C(O)c1ccc(N/N=C/c2ccc(OC(=O)c3ccccc3Cl)cc2)cc1`: the concentration at half-maximal activity (AC50) under setting [1] was 0.082 µM [falling, full curve].

`O=C(/C=C/c1ccco1)Nc1ccccc1N1CCCCC1`: under setting [1], the AC50 is 3.98 µM [rising, full curve, poor fit].

`O=c1c2[nH]cnc2n(-c2ccccc2)c(=O)n1Cc1ccccc1`: the AC50 under setting [1] was 22.4 µM [rising, partial curve].

Take `CC1(C)CC(=O)C2=C(C1)NC(=O)CC2C(=O)NCc1ccc(F)cc1` (centres undefined): the AC50 under setting [1] was 0.58 µM [falling, partial curve, poor fit].

As to `COc1ccc(-c2nc3c(c(SCC(=O)Nc4cccc(O)c4)n2)Cc2c(CO)cnc(C)c2O3)cc1`, the AC50 under setting [1] was 2.24 µM [rising, full curve, poor fit].

As to `CC(Sc1nnc(C(F)(F)F)n1C)C(=O)Nc1ccc(S(N)(=O)=O)cc1` (centres undefined), the AC50 under setting [1] was 11.2 µM [rising, partial curve, poor fit].

Take `O=C(Nc1cc(Cl)ccc1Cl)c1cc(S(=O)(=O)NCCc2ccccc2)ccc1F`: the AC50 under setting [1] is 20 µM [falling, partial curve, poor fit].

Consider `Cc1cc(-c2ccccc2)n(-c2cc(N/N=C/c3ccccc3O)ncn2)n1`, for which the concentration at half-maximal activity (AC50) under setting [2] was 6.51 µM [falling, full curve].

In the case of `CC1=C(CO)C(=O)OC([C@@H](C)C2CC[C@H]3C4C[C@H]5O[C@]56[C@@H](O)C=CC(=O)[C@]6(C)C4CC[C@]23C)C1` (some centres undefined), the AC50 under setting [1] was 2.24 µM [falling, partial curve, poor fit].

Take `Cc1ccc(C(C)NC(=O)c2c(C)noc2C)cc1C` (centres undefined): the AC50 under setting [1] is 0.92 µM [rising, full curve, poor fit].

With `O=C(NCc1ccc2c(c1)OCO2)c1ccc2c(c1)N(Cc1c(F)cccc1Cl)C(=O)CS2`, under setting [1], the AC50 is 0.0164 µM [rising, full curve, poor fit].

Consider `COc1cc(C2C(C#N)=C(N)Oc3n[nH]c(-c4cccnc4)c32)cc(Br)c1O` (centres undefined), for which the half-maximal activity concentration (AC50) under setting [1] was 11.2 µM [falling, partial curve, poor fit].

Consider `CC(C)(C)C(=O)N1CCN(c2nc3ccccc3o2)CC1`, for which the concentration at half-maximal activity (AC50) under setting [1] was 35.5 µM [rising, single point].

In the case of `Cc1[nH]c2ccc(F)cc2c1CCN(Cc1cccnc1)C(=S)NC(C)(C)C`, under setting [1], the half-maximal activity concentration (AC50) was 14.1 µM [falling, partial curve, poor fit].

As for `O=C(CSC1=NCCS1)Nc1nc(-c2ccccc2)cs1`, the AC50 under setting [1] is 28.2 µM [falling, single point].

In the case of `O=C1CCc2ccccc2N1`, the half-maximal activity concentration (AC50) under setting [1] is 7.08 µM [rising, partial curve].

With `CCC(=O)OCc1c(C(F)(F)F)nn(C)c1Sc1ccc(F)cc1`, the AC50 under setting [1] is 28.2 µM [rising, partial curve, poor fit].

As to `Cc1ccc(C)c(N=Cc2c(O)c3ccccc3oc2=O)c1`, the AC50 under setting [1] is 1.26 µM [falling, full curve, poor fit].

Regarding `CSCCCNC(=O)c1ccc(OC2CCN(C(=O)c3cccnc3)CC2)cc1`, the AC50 under setting [1] was 35.5 µM [rising, partial curve, poor fit].
